Laboratory results taken from PubChem BioAssay AID224 (DTP/NCI, 2004).
The list does not hold the whole screen: it gathers tests that were run many times, whatever their T/C, doses with no T/C, and many T/C values between a quarter and a half above the control. Further doses and runs are listed elsewhere. T/C: endpoint of the treated group in % of that of the vehicle group. Some entries give survivors of the animals treated and no T/C: the source files T/C as zero there, which appears to mark a toxic dose or a test without result, not a measured value. Some doses without a T/C left all or most animals alive at the check, yet need not have been tolerated: the source hardly ever lists a survival T/C far under the control, and the zero likely stands for such cases as well. Survivors were counted at the toxicity check, usually on the fifth day, unless a day is given; later deaths do not show. Schedule codes are those of the source, taken here to give the interval after Q, in days (D) or hours (H), and the number of doses after X. Some schedules carry Z or #; the key to these is not given. Where survival is the endpoint, the PubChem record calls one and a half times the control and up active, and a quarter to a half above the control has no call in these data; cut-offs in other NCI protocols can differ. Some entries were tested several times; the values are given in rising order. Starred links: 1 amine or outer side, 2 acyl side, 3 side chain; linkers in the order of their positions; H or OH if unused. Positions of bridges follow the written chain, without caps; N, C: chain ends. Non-standard residues stand in square brackets, D forms with d. Residues, ends and D or L forms follow the SMILES beside them. Chains are numbered I, II in the order given. Actinocin(9to1) = Cc1c2oc3c(C)ccc(C(=O)[*:1])c3nc-2c(C(=O)[*:2])c(N)c1=O; aThr = C[C@H](O)[C@H](N)C(=O)O; NMeV = CN[C@H](C(=O)O)C(C)C; Sar = CNCC(=O)O

System: P335 leukemia ip, BDF1 mice, survival T/C %
Assay: NCI In Vivo Anticancer Drug Screen. Data for tumor model P335 Leukemia (intraperitoneal) in B6D2F1 (BDF1) mice
Details: T/C endpoint: mean survival time, higher T/C = longer survival
Method: The antitumor activity of compounds was measured in mice bearing transplantable tumors. Survival or tumor size were measured and the results are expressed as the measurement made in the treated group (T) divided by the measurement made in the vehicle treated control group (C). The tumor model used in this assay is P335 Leukemia (intraperitoneal) in B6D2F1 (BDF1) mice

[1] = dose: 100.0 mg/kg/injection, schedule: Q01DX Z (ip), vehicle: carboxymethylcellulose (CMC)
[2] = dose: 2.5 mg/kg/injection, schedule: Q01DX Z (ip), vehicle: carboxymethylcellulose (CMC)
[3] = dose: 25.0 mg/kg/injection, schedule: Q01DX Z (ip), vehicle: carboxymethylcellulose (CMC)
[4] = dose: 50.0 mg/kg/injection, schedule: Q01DX Z (ip), vehicle: carboxymethylcellulose (CMC)
[5] = dose: 125.0 mg/kg/injection, schedule: Q01DX Z (ip), vehicle: carboxymethylcellulose (CMC)
[6] = dose: 250.0 mg/kg/injection, schedule: Q01DX Z (ip), vehicle: carboxymethylcellulose (CMC)

N[C@@H](Cc1ccc(N(CCCl)CCCl)cc1)C(=O)O
T/C (dose: 0.62 mg/kg/injection, schedule: Q01DX Z (ip), vehicle: saline): 139 % of control | T/C (dose: 1.25 mg/kg/injection, schedule: Q01DX Z (ip), vehicle: saline): 148 % of control | survivor count (dose: 10.0 mg/kg/injection, schedule: Q01DX Z (ip), vehicle: saline): 6 of 6

Cn1cnc([N+](=O)[O-])c1Sc1ncnc2nc[nH]c12
survivor count [1]: 6 of 6

Nc1ncnc2c1ccn2C1OC(CO)C(O)C1O (stereo not drawn)
survivor count (dose: 0.63 mg/kg/injection, schedule: Q01DX Z (ip), vehicle: carboxymethylcellulose (CMC)): 6 of 6 | survivor count [2]: 5 of 6

Nc1nc(=S)c2[nH]cnc2[nH]1
survivor count (dose: 8.0 mg/kg/injection, schedule: Q01DX Z (ip), vehicle: carboxymethylcellulose (CMC)): 6 of 6 | survivor count (dose: 16.0 mg/kg/injection, schedule: Q01DX Z (ip), vehicle: carboxymethylcellulose (CMC)): 6 of 6 | survivor count (dose: 32.0 mg/kg/injection, schedule: Q01DX Z (ip), vehicle: carboxymethylcellulose (CMC)): 2 of 6

O=C(Nc1ccc(C2=NCCN2)cc1)c1ccc(C(=O)Nc2ccc(C3=NCCN3)cc2)cc1
T/C (dose: 400.0 mg/kg/injection, schedule: Q01DX Z (ip), vehicle: carboxymethylcellulose (CMC)): 129 % of control | survivor count (dose: 800.0 mg/kg/injection, schedule: Q01DX Z (ip), vehicle: carboxymethylcellulose (CMC)): 1 of 6 | survivor count (dose: 1600.0 mg/kg/injection, schedule: Q01DX Z (ip), vehicle: carboxymethylcellulose (CMC)): 1 of 6

Nc1nc(N)c2nc(CNc3ccc(C(=O)NC(CCC(=O)O)C(=O)O)cc3)cnc2n1 (stereo not drawn)
T/C (dose: 31.0 micrograms/kg/injection, schedule: Q01DX Z (ip), vehicle: alkali diluted with saline): 125 % of control | T/C (dose: 63.0 micrograms/kg/injection, schedule: Q01DX Z (ip), vehicle: alkali diluted with saline): 132 % of control | T/C (dose: 125.0 micrograms/kg/injection, schedule: Q01DX Z (ip), vehicle: alkali diluted with saline): 147 % of control | survivor count (dose: 250.0 micrograms/kg/injection, schedule: Q01DX Z (ip), vehicle: alkali diluted with saline): 3 of 6 | survivor count (dose: 500.0 micrograms/kg/injection, schedule: Q01DX Z (ip), vehicle: alkali diluted with saline): 4 of 6

CCN(CC)C(=S)S
survivor count (dose: 2000.0 mg/kg/injection, schedule: Q01DX Z (ip), vehicle: water): 3 of 6

C[N+](C)(C)c1ncnc2nc[nH]c12
survivor count [3]: 6 of 6 | survivor count [4]: 6 of 6 | survivor count (dose: 200.0 mg/kg/injection, schedule: Q01DX Z (ip), vehicle: carboxymethylcellulose (CMC)): 6 of 6

COS(C)(=O)=O
survivor count (dose: 200.0 mg/kg/injection, schedule: Q01DX Z (ip), vehicle: water): 0 of 6

C[C@]12CCC(=O)C=C1CC[C@@H]1[C@@H]2C(=O)C[C@@]2(C)[C@H]1CC[C@]2(O)C(=O)CO
survivor count (dose: 125.0 mg/kg/injection, schedule: Q01DX Z (sc), vehicle: steroid suspending solution): 6 of 6 | survivor count (dose: 250.0 mg/kg/injection, schedule: Q01DX Z (sc), vehicle: steroid suspending solution): 6 of 6 | survivor count (dose: 500.0 mg/kg/injection, schedule: Q01DX Z (sc), vehicle: steroid suspending solution): 5 of 6 | survivor count (dose: 1000.0 mg/kg/injection, schedule: Q01DX Z (sc), vehicle: steroid suspending solution): 3 of 6

O=c1[nH]c(=O)n(C2CC(O)C(CO)O2)cc1I (stereo not drawn)
survivor count (dose: 900.0 mg/kg/injection, schedule: Q01DX Z (ip), vehicle: carboxymethylcellulose (CMC)): 6 of 6 | survivor count (dose: 1800.0 mg/kg/injection, schedule: Q01DX Z (ip), vehicle: carboxymethylcellulose (CMC)): 1 of 6

Cc1c2oc3c(C)ccc(C(=O)N[C@@H]4C(=O)N[C@H](C(C)C)C(=O)N5CCC[C@H]5C(=O)N(C)CC(=O)N(C)[C@@H](C(C)C)C(=O)O[C@H]4C)c3nc-2c(C(=O)N[C@@H]2C(=O)N[C@H](C(C)C)C(=O)N3CCC[C@H]3C(=O)N(C)CC(=O)N(C)[C@@H](C(C)C)C(=O)O[C@H]2C)c(N)c1=O (I: [aThr][dV]P[Sar][NMeV] / II: [aThr][dV]P[Sar][NMeV]; ester I:1-I:C, II:1-II:C; linker I:N-II:N via Actinocin(9to1))
T/C (dose: 12.8 micrograms/kg/injection, schedule: Q01DX Z (ip), vehicle: saline): 140 % of control

CCCCNc1ncnc2c1cnn2C
survivor count [5]: 1 of 6 | survivor count [6]: 0 of 6

C[C@H](N)C(=O)N[C@@H]1[C@H]2C(=C(O)C[C@@H](O)[C@@H]2O)C(=O)O[C@@H]1C
T/C (dose: 93.75 mg/kg/injection, schedule: Q01DX Z (ip), vehicle: saline): 138 % of control | T/C (dose: 1500.0 mg/kg/injection, schedule: Q01DX Z (ip), vehicle: saline): 125 % of control

CN(N=O)C(=O)NC(C=O)C(O)C(O)C(O)CO (stereo not drawn)
T/C (dose: 25.0 mg/kg/injection, schedule: Q01DX Z (ip), vehicle: saline): 131 % of control | T/C (dose: 50.0 mg/kg/injection, schedule: Q01DX Z (ip), vehicle: saline): 139 % of control | T/C (dose: 200.0 mg/kg/injection, schedule: Q01DX Z (ip), vehicle: saline): 126 % of control | survivor count (dose: 400.0 mg/kg/injection, schedule: Q01DX Z (ip), vehicle: saline): 1 of 6

Nc1ncnc2[nH]ncc12
survivor count [3]: 5 of 6 | survivor count [4]: 4 of 6

CS(=O)(=O)OCCCl
survivor count (dose: 12.5 mg/kg/injection, schedule: Q01DX Z (ip), vehicle: carboxymethylcellulose (CMC)): 6 of 6 | survivor count [3]: 5 of 6 | survivor count [4]: 4 of 6 | survivor count [1]: 0 of 6

O=c1cnn(C2OC(CO)C(O)C2O)c(=O)[nH]1 (stereo not drawn)
survivor count (dose: 4.0 mg/kg/injection, schedule: Q01DX Z (ip), vehicle: water): 5 of 6 | T/C (dose: 31.25 mg/kg/injection, schedule: Q01DX Z (ip), vehicle: water): 134 % of control | T/C (dose: 62.5 mg/kg/injection, schedule: Q01DX Z (ip), vehicle: water): 132 % of control | T/C (dose: 125.0 mg/kg/injection, schedule: Q01DX Z (ip), vehicle: water): 125 and 148 % of control

CCN(CC)c1ccc2cc3ccc(=[N+](CC)CC)cc-3oc2c1
survivor count (dose: 0.16 mg/kg/injection, schedule: Q01DX Z (ip), vehicle: carboxymethylcellulose (CMC)): 6 of 6 | survivor count (dose: 1.25 mg/kg/injection, schedule: Q01DX Z (ip), vehicle: carboxymethylcellulose (CMC)): 5 of 6 | survivor count [2]: 6 of 6 | survivor count (dose: 5.0 mg/kg/injection, schedule: Q01DX Z (ip), vehicle: carboxymethylcellulose (CMC)): 6 of 6 | survivor count (dose: 10.0 mg/kg/injection, schedule: Q01DX Z (ip), vehicle: carboxymethylcellulose (CMC)): 1 of 6

C[n+]1c2ccccc2nc2c(N)cc(N)cc21
survivor count [3]: 1 of 6 | survivor count [4]: 0 of 6

OCC1OC(n2cnc3c(Cl)ncnc32)C(O)C1O (stereo not drawn)
survivor count (dose: 3.9 mg/kg/injection, schedule: Q01DX Z (ip), vehicle: carboxymethylcellulose (CMC)): 6 of 6 | survivor count (dose: 31.25 mg/kg/injection, schedule: Q01DX Z (ip), vehicle: carboxymethylcellulose (CMC)): 6 of 6 | survivor count (dose: 62.5 mg/kg/injection, schedule: Q01DX Z (ip), vehicle: carboxymethylcellulose (CMC)): 6 of 6 | survivor count [5]: 6 of 6 | survivor count [6]: 6 of 6 | survivor count (dose: 500.0 mg/kg/injection, schedule: Q01DX Z (ip), vehicle: carboxymethylcellulose (CMC)): 6 of 6

O=c1[nH]c(=O)n(C2CC(O)C(CO)O2)cc1Br (stereo not drawn)
survivor count (dose: 2000.0 mg/kg/injection, schedule: Q01DX Z (ip), vehicle: carboxymethylcellulose (CMC)): 4 of 6

Oc1cc(CN(CCCl)CCCl)c(O)cc1CN(CCCl)CCCl
survivor count (dose: 3.75 mg/kg/injection, schedule: Q01DX Z (sc), vehicle: steroid suspending solution): 3 of 6 | survivor count (dose: 15.0 mg/kg/injection, schedule: Q01DX Z (sc), vehicle: steroid suspending solution): 6 of 6
